Assay [1] deals with WASP_(138-320) (human) (UniProt P42768). Briefly: two-hybrid; yeast two-hybrid analysis of WASP_(138-320) or WASP_(138-320)^ΔI30 with known WASP PRR binding proteins; data not shown.
In assay [2] the target is WASP^ΔI30-His (WASP with the I30 region, a.a. 158-187, deleted, His-tagged) (human) (UniProt P42768). Briefly: pull-down; His-tag pull-down from HEK293T cells transfected with WIP together with vector, WASP-His or WASP^ΔI30-His; probed for the presence of WIP.
Assay [3] has as its target WASP-His (Wiskott-Aldrich Syndrome protein, His-tagged) (human) (UniProt P42768). The assay is described as above.

Sequences of proteins named here, by UniProt entry; tags and fusion partners are left off. A change or cut given only in a name is not applied to a line headed by its entry. A line that says so, or that is headed by a name, gives the form on record, which may keep a tag or linker. Residues count along the entry.
UniProt P42768: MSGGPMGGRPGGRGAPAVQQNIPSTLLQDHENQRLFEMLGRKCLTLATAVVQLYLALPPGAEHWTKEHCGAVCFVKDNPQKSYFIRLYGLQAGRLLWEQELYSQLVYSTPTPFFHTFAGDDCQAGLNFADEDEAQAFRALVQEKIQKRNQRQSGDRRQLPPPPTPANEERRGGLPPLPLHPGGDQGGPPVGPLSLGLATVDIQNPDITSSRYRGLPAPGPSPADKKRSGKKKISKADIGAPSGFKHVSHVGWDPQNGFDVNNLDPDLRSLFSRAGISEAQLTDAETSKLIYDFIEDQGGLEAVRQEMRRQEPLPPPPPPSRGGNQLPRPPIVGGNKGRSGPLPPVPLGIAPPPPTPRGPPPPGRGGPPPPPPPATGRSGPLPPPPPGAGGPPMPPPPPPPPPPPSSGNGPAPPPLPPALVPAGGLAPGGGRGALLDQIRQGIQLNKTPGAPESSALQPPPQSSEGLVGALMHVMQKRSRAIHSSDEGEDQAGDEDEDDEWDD
WASP_(138-320): residues 138-320 of P42768
WASP^ΔI30-His (WASP with the I30 region, a.a. 158-187, deleted, His-tagged) (P42768, form named): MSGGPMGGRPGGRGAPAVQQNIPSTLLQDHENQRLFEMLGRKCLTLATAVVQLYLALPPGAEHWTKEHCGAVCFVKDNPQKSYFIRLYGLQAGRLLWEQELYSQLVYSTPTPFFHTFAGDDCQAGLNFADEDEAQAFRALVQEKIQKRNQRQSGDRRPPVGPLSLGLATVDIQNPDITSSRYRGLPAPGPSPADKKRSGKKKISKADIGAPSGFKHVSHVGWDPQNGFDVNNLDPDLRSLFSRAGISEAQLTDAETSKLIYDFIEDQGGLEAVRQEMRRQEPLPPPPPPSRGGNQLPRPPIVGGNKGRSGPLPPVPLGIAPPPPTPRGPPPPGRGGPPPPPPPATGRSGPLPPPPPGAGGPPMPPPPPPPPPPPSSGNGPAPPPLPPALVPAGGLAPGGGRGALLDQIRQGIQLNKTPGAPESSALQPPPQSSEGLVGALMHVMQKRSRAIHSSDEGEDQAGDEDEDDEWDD
UniProt P06241: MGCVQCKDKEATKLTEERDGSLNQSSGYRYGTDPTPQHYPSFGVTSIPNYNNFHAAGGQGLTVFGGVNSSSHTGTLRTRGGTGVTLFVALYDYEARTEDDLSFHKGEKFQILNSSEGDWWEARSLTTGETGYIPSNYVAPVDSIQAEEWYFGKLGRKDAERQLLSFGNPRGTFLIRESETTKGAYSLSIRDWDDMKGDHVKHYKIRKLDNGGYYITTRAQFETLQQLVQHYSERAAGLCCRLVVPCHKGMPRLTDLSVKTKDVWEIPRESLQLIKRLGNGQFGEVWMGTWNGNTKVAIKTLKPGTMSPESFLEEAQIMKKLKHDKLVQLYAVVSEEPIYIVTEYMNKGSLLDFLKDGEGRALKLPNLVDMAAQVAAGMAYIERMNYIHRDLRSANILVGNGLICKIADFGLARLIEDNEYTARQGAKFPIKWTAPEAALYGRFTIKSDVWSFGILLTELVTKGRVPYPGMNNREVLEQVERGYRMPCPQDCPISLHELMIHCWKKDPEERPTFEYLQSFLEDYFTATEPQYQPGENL
UniProt P62993: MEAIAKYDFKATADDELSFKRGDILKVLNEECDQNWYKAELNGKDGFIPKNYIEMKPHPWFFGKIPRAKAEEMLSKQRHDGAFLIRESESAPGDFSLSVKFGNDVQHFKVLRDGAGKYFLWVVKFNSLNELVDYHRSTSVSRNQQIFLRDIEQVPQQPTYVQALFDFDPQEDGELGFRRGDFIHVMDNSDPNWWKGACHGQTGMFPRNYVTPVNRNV
UniProt O43516: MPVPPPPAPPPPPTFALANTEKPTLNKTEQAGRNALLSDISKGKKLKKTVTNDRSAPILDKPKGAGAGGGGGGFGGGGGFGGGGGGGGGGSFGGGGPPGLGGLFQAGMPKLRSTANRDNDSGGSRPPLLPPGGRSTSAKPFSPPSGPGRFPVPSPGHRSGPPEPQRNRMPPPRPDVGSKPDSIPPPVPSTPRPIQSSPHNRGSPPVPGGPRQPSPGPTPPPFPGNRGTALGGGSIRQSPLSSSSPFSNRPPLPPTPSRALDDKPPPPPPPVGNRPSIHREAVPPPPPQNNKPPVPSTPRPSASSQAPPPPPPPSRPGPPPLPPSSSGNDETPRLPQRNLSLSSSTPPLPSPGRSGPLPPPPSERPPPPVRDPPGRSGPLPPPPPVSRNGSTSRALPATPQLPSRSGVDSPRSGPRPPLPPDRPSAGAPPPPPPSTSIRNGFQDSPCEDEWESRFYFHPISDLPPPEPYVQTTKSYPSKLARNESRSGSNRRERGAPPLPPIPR

These are yes or no findings as the source states them, for the method shown. For part of these data: In cells and extracts the contact can be indirect. Some binding calls cover weakened binding; strength is not graded here.

Consider Fgr (from UniProt P09769 1-529), for which, in assay [1], the binding result is on record as “binds”.
Fyn (from UniProt P06241 1-537): the binding entry in assay [1] was “binds”.
As for Grb2 (from UniProt P62993 1-217), in assay [1], the binding result was “binds”.
On to WIP (from UniProt O43516 1-503), for which the binding entry in assay [2] and in assay [3] was “binds” throughout.

B1: Toca1 (protein, UniProt Q5T0N5 1-605)
chain: MSWGTELWDQFDSLDKHTQWGIDFLERYAKFVKERIEIEQNYAKQLRNLVKKYCPKRSSKDEEPRFTSCVAFFNILNELNDYAGQREVVAEEMAHRVYGELMRYAHDLKTERKMHLQEGRKAQQYLDMCWKQMDNSKKKFERECREAEKAQQSYERLDNDTNATKADVEKAKQQLNLRTHMADENKNEYAAQLQNFNGEQHKHFYVVIPQIYKQLQEMDERRTIKLSECYRGFADSERKVIPIISKCLEGMILAAKSVDERRDSQMVVDSFKSGFEPPGDFPFEDYSQHIYRTISDGTISASKQESGKMDAKTTVGKAKGKLWLFGKKPKPQSPPLTPTSLFTSSTPNGSQFLTFSIEPVHYCMNEIKTGKPRIPSFRSLKRGWSVKMGPALEDFSHLPPEQRRKKLQQRIDELNRELQKESDQKDALNKMKDVYEKNPQMGDPGSLQPKLAETMNNIDRLRMEIHKNEAWLSEVEGKTGGRGDRRHSSDINHLVTQGRESPEGSYTDDANQEVRGPPQQHGHHNEFDDEFEDDDPLPAIGHCKAIYPFDGHNEGTLAMKEGEVLYIIEEDKGDGWTRARRQNGEEGYVPTSYIDVTLEKNSKGS
As for B1, in assay [1], the binding entry is “binds”.

Values taken from article PMC4604493.
